Our source for the outcome values is PubChem BioAssay (EPA / NIEHS).

For part of these data: Most of the hits are listed elsewhere, so they are rarer here than in the full data. This is a selection; strong and weak results do not stand in their true shares. The source made the active and inactive calls. How the source made its calls: active means hit-call score of the fitted dose curve at least 0.9, where 1 is the maximum; inactive means score below 0.9.

Read-out in one test: ATP-citrate lyase (ACLY), ACLY (gene 47)
As to the kind of experiment: LTEA_HepaRG_ACLY: Life Technologies and Expression Analysis (LTEA) Assay for ATP-citrate lyase (ACLY) using HepaRG (AID 2283466). The following applies: actives raise or lower the signal; mRNA level, 48 h. In outline:
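Differentiated human HepaRG cells in serum-free induction medium exposed 48 h, in duplicate, to eight half-log concentrations from 100 uM top in 0.5% DMSO; ACLY mRNA measured by qRT-PCR, normalized to ACTB, GAPDH, POLR2A, fitted bidirectionally versus DMSO.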
Regarding `O=C(NO)C1(NS(=O)(=O)c2ccc(Oc3ccc(F)cc3)cc2)CCOCC1`, the compound was classed as inactive.
On the same count and under the same terms, the entry for `C[Si]1(C)O[Si](C)(C)O[Si](C)(C)O[Si](C)(C)O1` is “inactive”; for `CCC(C)c1ccccc1O` (configuration not stated) it is “inactive”.

Read-out in a further test: Cytochrome P450 (CYP24A1), CYP24A1 (gene 1591)
As to the kind of experiment: LTEA_HepaRG_CYP24A1: Life Technologies and Expression Analysis (LTEA) Assay for Cytochrome P450 (CYP24A1) using HepaRG (AID 2283478). The settings on record: actives raise or lower the signal; mRNA level, 48 h. In outline: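 Gene expression of CYP24A1 by TaqMan qRT-PCR in HepaRG after 48 h treatment, highest concentration 100 uM; activity fitted in both directions relative to DMSO vehicle.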
As to `CN1C(=O)N(c2ccccc2Br)Cc2cnc(Nc3ccc4c(c3)OCC(CO)O4)nc21` (configuration not stated), the compound was called inactive.
On the same count and under the same terms, the entry for `CC(=O)N1CCN(c2ccc(OC[C@H]3CO[C@](Cn4ccnc4)(c4ccc(Cl)cc4Cl)O3)cc2)CC1` is “inactive”; for `C1=CCCC=CCCC=CCC1` it is “inactive”.
Consider `CC(C)c1cccc(C(C)C)c1`, for which the outcome was inactive.

Read-out in another test: Pro-epidermal growth factor (Homo sapiens) (UniProt P01133)
As to the kind of experiment: LTEA_HepaRG_EGF: Life Technologies and Expression Analysis (LTEA) Assay for Epidermal growth factor (EGF) using HepaRG (AID 2283489). The settings on record: actives raise or lower the signal; mRNA level, 48 h. On the procedure:
LTEA_HepaRG is a cell based, multiplexed-readout assay that uses HepaRG, a human liver cell line, with measurements taken at 48 hours after chemical dosing on a 96-well plate.LTEA_HepaRG_EGF is one of 102 assay component(s) measured in the LTEA HepaRG cell culture assay. It is a marker of Cell proliferation, survival, death.Data from the assay component LTEA_HepaRG_EGF was analyzed into 1 endpoint. This assay endpoint, LTEA_HepaRG_EGF, was analyzed with bidirectional fitting relative to DMSO as the negative control and baseline of activity. Using a type of inducible reporter, measures of mRNA induction for gain or loss-of-signal activity can be used to understand regulation of transcription factor activity. To generalize the intended target to other relatable targets, this assay endpoint is annotated to the growth factor intended target family, where the subfamily is EGF-like domain.
A total of 1060 chemcials from the ToxCast library were tested in eight-point concentration-response experiments. Cell culture and cytotoxicity assays were conducted at Thermo Fisher Scientific's Custom Services facility (Madison, WI). A single lot of human HepaRG cells (Thermo Fisher Scientific, Frederick, MD) was used for the cell culture experiments. 96-well format collagen type I coated plates of human HepaRG cells were prepared using established methods. Briefly, cryopreserved HepaRG cells were thawed, plated at a density of approximately 100,000 cells/well in HepaRG Thaw, Plate, and General Purpose media (HPRG770, Thermo Fisher Scientific), and incubated for 48 hours. 0.5% DMSO was selected as vehicle control to balance the requisite need of DMSO in HepaRG cultures to maintain differentiation (for example, baseline metabolism, proportions of hepatocytes vs. cholangiocytes), while enabling further hepatic receptor pathway activation (for example, PXR and CAR) in response to chemical exposure. 48 hours after plating, the culture medium was replaced with HepaRG Serum-Free Incudtion Media. Cells were exposed to each test chemical in duplicate and maintained in CO2 incubators for another 48 hours. Chemical plates were thawed to room temperature and 200x concentrations of treatment groups were prepared. 8-point conentration-reponse curves were made with the highest exposure at 100 uM, followed by half-log dilutions, all in 0.5% DMSO. Each test plate contained variouse controls, induction positive controls (1mM phenobarbital), cytotoxicity positive controls ([…] aflatoxin B1), vehicle controls (0.5% DMSO), and total lysis controls (0.5% DMSO). Cell morphology images were taken using an Essen IncuCyte FLR automated microscope, with six 96-well plates imaged in about 24 minutes. Images were captured and exported and JPEG files. Spent culture media was transfered to black-well plates for the LDH assay, and remaining media was sorted at -80 C for later use. Cells were treated with RLT buffer and frozen until shipped for gene expression analysis. Total RNA was isolated from the cell suspension in 75 uL of Buffer RLT (Qiagen, Germantown, MD 20874) by Quintiles/Expression Analysis (Durham, NC) using a custom isolation procedure. Total RNA from each plate well was transferred to a preamplification plate. Fluidigm's 96.96 Dynamic ArrayTM (Fluidigm, Amsterdam, the Netherlands) technology was used for gene expression analyses by quantitative reverse transcription polymerase chain reaction (qRT-PCR, performed by Quintiles/Expression Analysis, Durham, NC)89. Standard TaqManTM Assays (Applied Biosystems/ThermoFisher Scientific, Foster City, CA) were used to assess the expression of 93 genes selected based on their selectivity and sensitivity to important hepatic receptors known to be modulated by environmental chemicals; importance in human hepatocyte functionality; and hepatotoxicity. […]
Take `CC(=O)N1CCN(c2ccc(OC[C@H]3CO[C@](Cn4ccnc4)(c4ccc(Cl)cc4Cl)O3)cc2)CC1`: the result was inactive.
Consider `O=C1CCC(N2C(=O)c3ccccc3C2=O)C(=O)N1` (configuration not stated), for which the outcome was inactive.
`C[C@]12C=CC(=O)C=C1CC[C@H]1[C@@H]3C[C@@H](O)[C@](O)(C(=O)CO)[C@@]3(C)C[C@H](O)[C@@]12F`: the result was inactive.
For the compound `Nc1ccc(S(=O)(=O)c2ccc(N)cc2)cc1`, the outcome was inactive.
The same measure, in the same setting: the value for `CC(C)(C)c1cccc(C(C)(C)C)c1O` was “inactive”.
